From US20220202964A1, “HEPARANASE COMPOUNDS AND METHODS OF USE” (University of Florida Research Foundation, Incorporated, priority 2019, published 2022)
Some of these results come from one statement about several compounds together.

Molecular target: T1, heparanase (Homo sapiens, UniProt Q9Y251)
T1 sequence (Q9Y251 36-543): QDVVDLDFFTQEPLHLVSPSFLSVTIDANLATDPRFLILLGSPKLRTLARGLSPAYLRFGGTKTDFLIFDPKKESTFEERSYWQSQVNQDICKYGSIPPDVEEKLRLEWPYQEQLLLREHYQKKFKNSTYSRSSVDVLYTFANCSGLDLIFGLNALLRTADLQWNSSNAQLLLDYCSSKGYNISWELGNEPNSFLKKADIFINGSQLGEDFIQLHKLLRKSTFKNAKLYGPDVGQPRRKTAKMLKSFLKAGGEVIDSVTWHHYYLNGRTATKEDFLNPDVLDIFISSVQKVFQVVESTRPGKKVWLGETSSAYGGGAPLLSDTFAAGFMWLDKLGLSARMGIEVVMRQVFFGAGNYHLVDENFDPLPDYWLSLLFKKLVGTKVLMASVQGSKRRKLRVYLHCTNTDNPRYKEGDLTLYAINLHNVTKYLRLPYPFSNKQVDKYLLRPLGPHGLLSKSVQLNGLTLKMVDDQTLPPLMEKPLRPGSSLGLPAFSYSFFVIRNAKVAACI
Assay: Activation of compounds by recombinant heparanase (fluorescence response)
Assay type: biochemical
Settings: 5 μM compound, 1 μg heparanase, 40 mM NaOAc buffer (pH 5.0), 37° C., λex/em=365 nm/455 nm
Experimental: To a solution of 20 μL, of 50 μM compound 1 (HADP) and 160 μL 40 mM NaOAc (pH=5.0) was added 20 μL, 0.1 μg/μL heparanase to obtain 5 μM 1 (HADP) with 2 μg heparanase solution. After incubation at 37° C. for 2 h, the reaction solution was transferred to quartz cuvettes to measure absorbance or fluorescence. Absorbance spectrum scan range from 250 nm to 500 nm (1 nm increment). fluorescence spectrum setting: λex=365 nm, Slit Width 2.5 nm. Emission was record from 400 nm to 600 nm, Slit Width 5 nm. Absorption spectra were recorded on Shimadzu UV-2700 UV-VIS Spectrophotometer. Fluorescence spectra were recorded on Fluorolog TAU-3 Spectrofluorometer with a xenon lamp (Jobin Yvon-Spex, Instruments S. A., Inc.)
Fluorescence micro cells was charged with 20 μL, of 50 μM compound 1 (HADP) and 160 μL 40 mM NaOAc (pH=5.0). Then 20 μL, 0.05 μg/μL heparanase was added to the above solution. Fluorescence spectra were recorded from 0 min to 3 h. fluorescence spectrum setting: λex=365 nm, Slit Width 2.5 nm. Emission was record from 400 nm to 600 nm, Slit Width 5 nm.
To a solution of 20 μL, of 50 μM each compound and 160 μL, 40 mM NaOAc (pH=5.0) was added 20 μL, 0.05 μg/μL heparanase to obtain 5 μM each compound with 1 μg heparanase solution in 96-well microplate. […] Fluorescence intensity was recorded on Spectramax M5 Multimode plate reader (Molecular Devices, USA) at each timepoint. λex/em=365 nm/455 nm. […]

Substance | fluorescence response towards heparanase (listed as compound 4) | fluorescence response towards heparanase (listed as compound 3)
(2S,3S,4R,5R,6S)-3-(((2R,3R,4R,5S,6R)-4,5-dihydroxy-6-((sulfooxy)methyl)-3-(((E)-trioxidaneyl-14-sulfaneylidene)amino)tetrahydro-2H-pyran-2-yfloxy)-4,5-dihydroxy-6-((4-methyl-2-oxo-2H-chromen-7-yl)oxy)tetrahydro-2H-pyran-2-carboxylic acid [Compound 4] | barely show a fluorescence change | –
(2S,3S,4R,5R,6S)-6-((8-(difluoromethyl)-4-methyl-2-oxo-2H-chromen-7-yl)oxy)-3-(((2R,3R,4R,5S,6R)-3-((hydrosulfonyloxy)amino)-4,5-dihydroxy-6-(hydroxymethyl)tetrahydro-2H-pyran-2-yl)oxy)-4,5-dihydroxytetrahydro-2H-pyran-2-carboxylic acid [Compound 3] | – | barely show a fluorescence change
